Test results reported in patent US11779015B2, “Pesticide compositions” (FUNDACIÓ CENTRE DE REGULACIÓ GENÒMICA, priority 2017, dated 2023).
Some of these results come from one statement about several compounds together. For at least one compound, name, drawing or mass did not settle the structure.

tested on: adult D. suzukii flies; test: Petri dish assay, dose-range 0.3 to 10% vol in paraffin oil, 24 h exposure (FIG. 3E); type: in vivo, Drosophila suzukii
From the text: Data are represented as mean proportion of dead flies, with counts separated between male (as indicated by ‘M’) and female (as indicated by ‘F’) flies. […] Data points marked NaN were not tested at the indicated concentration. The MEC column summarises the minimal effective concentration to induce 100% morbidity/mortality to adult D. suzukii flies.

Compound | concentration at which toxicity is displayed (as low as)
CCCCCC(C)=O [2-heptanone] | > 10%
O=C(OCc1ccccc1)c1ccccc1 [benzyl benzoate, Benzyl benzoate, reference compound] | > 10%
O=C(OCc1ccccc1)c1ccccc1O [benzyl salicylate, Benzyl salicylate, reference compound] | > 10%
C=CC(C)(CCC=C(C)C)OC(=O)c1ccccc1 (centres unmarked) [linalyl benzoate, Linalyl benzoate, reference compound] | > 10%
CCC(C)C(=O)OC (centres unmarked) [methyl 2-methylbutyrate, Methyl 2-methyl butyrate] | > 10%
